According to patent US20200270627A1 (COMMONWEALTH SCIENTIFIC AND INDUSTRIAL RESEARCH ORGANISATION, published 2020):
These are yes or no findings as the source states them, for the method shown. Binding seen in cells or lysates may run through a third protein. Some entries that bind do so weakly or less than the wild type. Where a sequence is shown, tags or fusion partners need not be part of it.

Target: T1, Sr33 1-160:CFP (Ae. tauschii (Triticum tauschii))
T1 chain: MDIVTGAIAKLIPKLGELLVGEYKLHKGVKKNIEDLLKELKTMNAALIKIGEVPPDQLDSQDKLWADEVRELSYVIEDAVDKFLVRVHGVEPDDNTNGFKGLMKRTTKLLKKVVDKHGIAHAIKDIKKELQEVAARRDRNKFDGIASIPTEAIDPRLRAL
Test: co-immunoprecipitation with anti-GFP antibodies from N. benthamiana leaf cells
Settings: remark: other sources report otherwise

B1: Sr33 1-160:HA (other)
chain: MDIVTGAIAKLIPKLGELLVGEYKLHKGVKKNIEDLLKELKTMNAALIKIGEVPPDQLDSQDKLWADEVRELSYVIEDAVDKFLVRVHGVEPDDNTNGFKGLMKRTTKLLKKVVDKHGIAHAIKDIKKELQEVAARRDRNKFDGIASIPTEAIDPRLRAL
notes: also called full CC domain of Sr33 fused to a C-terminal HA tag; not shown: C-terminal HA tag (vector pBIN19-35S::GTW:3HA)
For B1, the binding was “binds”.
